These are yes or no findings as the source states them, for the method shown. Some entries that bind do so weakly or less than the wild type.
B1: 1B1-H1K1-IgG1-LALA (antibody, V domains shown)
VH: QVQLVQSGAEVKKPGASVKVSCKASGYTFTSYWMHWVRQAPGQGLEWIGNIYPDSGTTNYGEKFKTRVTLTVDTSTSTAYMELSSLRSEDTAVYYCTRDTSGQYYFDYWGQGTLVTVSS
VL: DIVMTQSPDSLAVSAGERATMNCKSSQSLLNSRTRKNYLAWYQHKPGQSPKLLIYWASTRESGVPDRFSGSGSGTDFTLTISSLQAEDVAVYYCVQSFSLRAFGGGTKVEIK
B2: 1B1-H3K1-IgG1-LALA (antibody, V domains shown)
VH: QVQLVQSGAEVKKPGASVKLSCKASGYTFTSYWMHWVRQRHGQGLEWIGNIYPDSGTTNYGEKFKTRVTLTVDTSTSTAYMELSSLRSEDTAVYYCTRDTSGQYYFDYWGQGTLVTVSS
VL: DIVMTQSPDSLAVSAGERATMNCKSSQSLLNSRTRKNYLAWYQHKPGQSPKLLIYWASTRESGVPDRFSGSGSGTDFTLTISSLQAEDVAVYYCVQSFSLRAFGGGTKVEIK
B3: 1B1-H2K3-IgG1-LALA (antibody, V domains shown)
VH: QVQLVQSGAEVKKPGASVKLSCKASGYTFTSYWMHWVRQAPGQGLEWIGNIYPDSGTTNYGEKFKTRVTLTVDTSTSTAYMELSSLRSEDTAVYYCTRDTSGQYYFDYWGQGTLVTVSS
VL: DIVMTQSPDSLAVSAGERVTMNCKSSQSLLNSRTRKNYLAWYQHKPGQSPKLLIYWASTRESGVPDRFSGSGSGTDFTLTISSVQAEDVAVYYCVQSFSLRAFGGGTKLEIK
B4: 1B1-H4K2-IgG1-LALA (antibody, V domains shown)
VH: QVQLVQSGAEVVKPGASVKLSCKASGYTFTSYWMHWVRQRHGQGLEWIGNIYPDSGTTNYGEKFKTRGTLTVDTSTSTAYMELSSLRSEDTAVYYCTRDTSGQYYFDYWGQGTLVTVSS
VL: DIVMTQSPDSLAVSAGERVTMNCKSSQSLLNSRTRKNYLAWYQHKPGQSPKLLIYWASTRESGVPDRFSGSGSGTDFTLTISSLQAEDVAVYYCVQSFSLRAFGGGTKVEIK
B5: 1B1-H1K2-IgG1-LALA (antibody, V domains shown)
VH: QVQLVQSGAEVKKPGASVKVSCKASGYTFTSYWMHWVRQAPGQGLEWIGNIYPDSGTTNYGEKFKTRVTLTVDTSTSTAYMELSSLRSEDTAVYYCTRDTSGQYYFDYWGQGTLVTVSS
VL: DIVMTQSPDSLAVSAGERVTMNCKSSQSLLNSRTRKNYLAWYQHKPGQSPKLLIYWASTRESGVPDRFSGSGSGTDFTLTISSLQAEDVAVYYCVQSFSLRAFGGGTKVEIK
B6: 1B1-H4K1-IgG1-LALA (antibody, V domains shown)
VH: QVQLVQSGAEVVKPGASVKLSCKASGYTFTSYWMHWVRQRHGQGLEWIGNIYPDSGTTNYGEKFKTRGTLTVDTSTSTAYMELSSLRSEDTAVYYCTRDTSGQYYFDYWGQGTLVTVSS
VL: DIVMTQSPDSLAVSAGERATMNCKSSQSLLNSRTRKNYLAWYQHKPGQSPKLLIYWASTRESGVPDRFSGSGSGTDFTLTISSLQAEDVAVYYCVQSFSLRAFGGGTKVEIK
B7: 1B1-H1K3-IgG1-LALA (antibody, V domains shown)
VH: QVQLVQSGAEVKKPGASVKVSCKASGYTFTSYWMHWVRQAPGQGLEWIGNIYPDSGTTNYGEKFKTRVTLTVDTSTSTAYMELSSLRSEDTAVYYCTRDTSGQYYFDYWGQGTLVTVSS
VL: DIVMTQSPDSLAVSAGERVTMNCKSSQSLLNSRTRKNYLAWYQHKPGQSPKLLIYWASTRESGVPDRFSGSGSGTDFTLTISSVQAEDVAVYYCVQSFSLRAFGGGTKLEIK
B8: 1B1-H2K2-IgG1-LALA (antibody, V domains shown)
VH: QVQLVQSGAEVKKPGASVKLSCKASGYTFTSYWMHWVRQAPGQGLEWIGNIYPDSGTTNYGEKFKTRVTLTVDTSTSTAYMELSSLRSEDTAVYYCTRDTSGQYYFDYWGQGTLVTVSS
VL: DIVMTQSPDSLAVSAGERVTMNCKSSQSLLNSRTRKNYLAWYQHKPGQSPKLLIYWASTRESGVPDRFSGSGSGTDFTLTISSLQAEDVAVYYCVQSFSLRAFGGGTKVEIK
B9: 1B1-H4K3-IgG1-LALA (antibody, V domains shown)
VH: QVQLVQSGAEVVKPGASVKLSCKASGYTFTSYWMHWVRQRHGQGLEWIGNIYPDSGTTNYGEKFKTRGTLTVDTSTSTAYMELSSLRSEDTAVYYCTRDTSGQYYFDYWGQGTLVTVSS
VL: DIVMTQSPDSLAVSAGERVTMNCKSSQSLLNSRTRKNYLAWYQHKPGQSPKLLIYWASTRESGVPDRFSGSGSGTDFTLTISSVQAEDVAVYYCVQSFSLRAFGGGTKLEIK
B10: 1B1-H2K1-IgG1-LALA (antibody, V domains shown)
VH: QVQLVQSGAEVKKPGASVKLSCKASGYTFTSYWMHWVRQAPGQGLEWIGNIYPDSGTTNYGEKFKTRVTLTVDTSTSTAYMELSSLRSEDTAVYYCTRDTSGQYYFDYWGQGTLVTVSS
VL: DIVMTQSPDSLAVSAGERATMNCKSSQSLLNSRTRKNYLAWYQHKPGQSPKLLIYWASTRESGVPDRFSGSGSGTDFTLTISSLQAEDVAVYYCVQSFSLRAFGGGTKVEIK
B11: 1B1-H3K2-IgG1-LALA (antibody, V domains shown)
VH: QVQLVQSGAEVKKPGASVKLSCKASGYTFTSYWMHWVRQRHGQGLEWIGNIYPDSGTTNYGEKFKTRVTLTVDTSTSTAYMELSSLRSEDTAVYYCTRDTSGQYYFDYWGQGTLVTVSS
VL: DIVMTQSPDSLAVSAGERVTMNCKSSQSLLNSRTRKNYLAWYQHKPGQSPKLLIYWASTRESGVPDRFSGSGSGTDFTLTISSLQAEDVAVYYCVQSFSLRAFGGGTKVEIK
B12: 1B1-H3K3-IgG1-LALA (antibody, V domains shown)
VH: QVQLVQSGAEVKKPGASVKLSCKASGYTFTSYWMHWVRQRHGQGLEWIGNIYPDSGTTNYGEKFKTRVTLTVDTSTSTAYMELSSLRSEDTAVYYCTRDTSGQYYFDYWGQGTLVTVSS
VL: DIVMTQSPDSLAVSAGERVTMNCKSSQSLLNSRTRKNYLAWYQHKPGQSPKLLIYWASTRESGVPDRFSGSGSGTDFTLTISSVQAEDVAVYYCVQSFSLRAFGGGTKLEIK
B13: 10A4-H1K1-IgG1-LALA (antibody, V domains shown)
VH: QVQLVQSGAEVKKPGASVKVSCKASGYTFTSYYIHWVRQAPGQRLEFIGWIYPGNVNAKYNEKFKGRVTITTDKSASTAYMELSSLRSEDTAVYYCAIKGGNYDWGQGTLVTVSS
VL: DVVMTQSPLSLPVTLGQPASISCQSSQSLLDSDGKTYLNWLQQRPGQSPRRLIYLVSKLGSGVPDRFSGSGSGTDFTLKISRVEAEDVGVYYCWQGTHFPRTFGGGTKVEIK
B14: 10A4-H3K2-IgG1-LALA (antibody, V domains shown)
VH: QVQLVQSGAEVKKPGASVKISCKASGYTFTSYYIHWVRQRPGQRLEFIGWIYPGNVNAKYNEKFKGRATLTTDKSASTAYMELSSLRSEDTAVYFCAIKGGNYDWGQGTLVTVSS
VL: DVVMTQSPLSLPVTLGQPASISCQSSQSLLDSDGKTYLNWLQQRPGQSPRRLIYLVSKLGSGVPDRFSGSGSGTDFTLKISRVEAEDVGVYYCWQGTHFPRTFGGGTKLEIK
B15: 10A4-H4K1-IgG1-LALA (antibody, V domains shown)
VH: QVQLQQSGAEVKKPGASVRISCKASGYTFTSYYIHWVRQRPGQGLEFIGWIYPGNVNAKYNEKFKGRATLTTDKSASTAYMELSSLRSEDTAVYFCAIKGGNYDWGQGTLVTVSS
VL: DVVMTQSPLSLPVTLGQPASISCQSSQSLLDSDGKTYLNWLQQRPGQSPRRLIYLVSKLGSGVPDRFSGSGSGTDFTLKISRVEAEDVGVYYCWQGTHFPRTFGGGTKVEIK
B16: 10A4-H1K2-IgG1-LALA (antibody, V domains shown)
VH: QVQLVQSGAEVKKPGASVKVSCKASGYTFTSYYIHWVRQAPGQRLEFIGWIYPGNVNAKYNEKFKGRVTITTDKSASTAYMELSSLRSEDTAVYYCAIKGGNYDWGQGTLVTVSS
VL: DVVMTQSPLSLPVTLGQPASISCQSSQSLLDSDGKTYLNWLQQRPGQSPRRLIYLVSKLGSGVPDRFSGSGSGTDFTLKISRVEAEDVGVYYCWQGTHFPRTFGGGTKLEIK
B17: 10A4-H2K2-IgG1-LALA (antibody, V domains shown)
VH: QVQLVQSGAEVKKPGASVKISCKASGYTFTSYYIHWVRQAPGQRLEFIGWIYPGNVNAKYNEKFKGRATITTDKSASTAYMELSSLRSEDTAVYYCAIKGGNYDWGQGTLVTVSS
VL: DVVMTQSPLSLPVTLGQPASISCQSSQSLLDSDGKTYLNWLQQRPGQSPRRLIYLVSKLGSGVPDRFSGSGSGTDFTLKISRVEAEDVGVYYCWQGTHFPRTFGGGTKLEIK
B18: 10A4-H2K1-IgG1-LALA (antibody, V domains shown)
VH: QVQLVQSGAEVKKPGASVKISCKASGYTFTSYYIHWVRQAPGQRLEFIGWIYPGNVNAKYNEKFKGRATITTDKSASTAYMELSSLRSEDTAVYYCAIKGGNYDWGQGTLVTVSS
VL: DVVMTQSPLSLPVTLGQPASISCQSSQSLLDSDGKTYLNWLQQRPGQSPRRLIYLVSKLGSGVPDRFSGSGSGTDFTLKISRVEAEDVGVYYCWQGTHFPRTFGGGTKVEIK
B19: 10A4-H3K1-IgG1-LALA (antibody, V domains shown)
VH: QVQLVQSGAEVKKPGASVKISCKASGYTFTSYYIHWVRQRPGQRLEFIGWIYPGNVNAKYNEKFKGRATLTTDKSASTAYMELSSLRSEDTAVYFCAIKGGNYDWGQGTLVTVSS
VL: DVVMTQSPLSLPVTLGQPASISCQSSQSLLDSDGKTYLNWLQQRPGQSPRRLIYLVSKLGSGVPDRFSGSGSGTDFTLKISRVEAEDVGVYYCWQGTHFPRTFGGGTKVEIK
B20: 10A4-H4K2-IgG1-LALA (antibody, V domains shown)
VH: QVQLQQSGAEVKKPGASVRISCKASGYTFTSYYIHWVRQRPGQGLEFIGWIYPGNVNAKYNEKFKGRATLTTDKSASTAYMELSSLRSEDTAVYFCAIKGGNYDWGQGTLVTVSS
VL: DVVMTQSPLSLPVTLGQPASISCQSSQSLLDSDGKTYLNWLQQRPGQSPRRLIYLVSKLGSGVPDRFSGSGSGTDFTLKISRVEAEDVGVYYCWQGTHFPRTFGGGTKLEIK

By UniProt entry, the sequences of proteins in these tests, tags left out. Where a name states a change or a piece, a line headed by the entry shows the natural chain unless it says otherwise.
UniProt P07766: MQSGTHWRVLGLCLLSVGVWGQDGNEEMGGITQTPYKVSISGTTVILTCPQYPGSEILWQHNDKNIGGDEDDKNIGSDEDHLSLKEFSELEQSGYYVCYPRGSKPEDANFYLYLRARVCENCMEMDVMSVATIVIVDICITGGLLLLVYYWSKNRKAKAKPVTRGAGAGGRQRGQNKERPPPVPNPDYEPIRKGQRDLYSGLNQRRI

molecular target: Histidine-tagged human CD3e protein (human) (UniProt P07766); assay: SPR (Biacore), human CD3e

binding, binds:
B1
B2
B3
B4
B5
B6
B7
B8
B9
B10
B11
B12
B13
B14
B15
B16
B17
B18
B19
B20
